Laboratory results reported in patent publication US12391919B2, “Culture medium, coating matrix and method for maturing midbrain dopaminergic progenitor cells” (NUWACELL BIOTECHNOLOGIES CO., LTD., priority 2022, dated 2025).
Some of these results come from one statement about several compounds together.

Tested on: imDAPs
Experiment: imDAP expansion: cell morphology, cell number (Vi-cell cytometer), expansion fold, Population Doubling Time
Assay type: cell-based, human
Conditions: Example 8; 6 days; seeded 1×10^4 cells/cm^2; compared with about 20 fold or more without both DLL4 and SB431542; FIG. 4B
Description: imDAPs were produced according to the method described in CN201910169525.0. The imDAPs (P0) were seeded on VTN-coated plates (1 μg/cm^2) at a density of 1×10^5 cells/cm^2 in the expansion medium (50% DMEM/F12, 50% Neurobasal™ medium, 1% (v/v) Glutamax, 2% (v/v) B27 (50×), 0.2 μM LDN193189, 3 μM CHIR99021, 100 ng/mL FGF8b) in the absence or presence of 5 μM Blebbistatin. In case where Blebbistatin is present, Blebbistatin was either removed 24 hrs after plating or present throughout the culture period. The medium was changed every day for 5 days.
imDAPs were produced according to the method described in CN201910169525.0. […]
imDAPs were produced according to the method described in CN201910169525.0. […] When imDAPs reach 100% confluence (4-5 days), cells were passaged enzymatically with 1× TrypLE, centrifuged at 250 g for 5 minutes, counted and replaced on new VTN-coated plates (1 μg/cm^2) at a density of 1×10^5 cells/cm^2 in the expansion medium. imDAPs were continuously expanded for 6 passages. […]
imDAPs were produced according to the method described in CN201910169525.0. […] The typical cell morphology on day 4 was recorded (FIG. 4A). The cell number of each group was counted by Vi-cell cytometer (FIG. 4B). The cells of each group were stained with Foxa2-PE antibody (BD, #561589), the percentage of Foxa2+ imDAPs were analyzed by flow cytometry (FIG. 4C). […]

| Compound | imDAP expansion efficiency |
| --- | --- |
| NC(=O)c1ccc(-c2nc(-c3ccc4c(c3)OCO4)c(-c3ccccn3)[nH]2)cc1 [SB431542] | ≥ 32 fold |
| DLL4: Notch agonist used as second coating matrix | ≥ 32 fold |
